36 targets from the supplement of paper PMC7666118 can be followed below.

By UniProt entry, the sequences of proteins in these tests, tags left out. Where a name states a change or a piece, a line headed by the entry shows the natural chain unless it says otherwise.
UniProt P0C870: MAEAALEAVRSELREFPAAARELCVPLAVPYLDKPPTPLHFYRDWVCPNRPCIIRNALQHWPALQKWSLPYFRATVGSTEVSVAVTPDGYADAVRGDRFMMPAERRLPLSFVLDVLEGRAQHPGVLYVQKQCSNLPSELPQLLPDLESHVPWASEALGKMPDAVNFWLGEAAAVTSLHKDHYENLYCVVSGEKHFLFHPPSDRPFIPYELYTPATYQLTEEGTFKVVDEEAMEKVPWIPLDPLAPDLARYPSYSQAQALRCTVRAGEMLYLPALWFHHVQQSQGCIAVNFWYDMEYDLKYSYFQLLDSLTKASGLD
UniProt P49441: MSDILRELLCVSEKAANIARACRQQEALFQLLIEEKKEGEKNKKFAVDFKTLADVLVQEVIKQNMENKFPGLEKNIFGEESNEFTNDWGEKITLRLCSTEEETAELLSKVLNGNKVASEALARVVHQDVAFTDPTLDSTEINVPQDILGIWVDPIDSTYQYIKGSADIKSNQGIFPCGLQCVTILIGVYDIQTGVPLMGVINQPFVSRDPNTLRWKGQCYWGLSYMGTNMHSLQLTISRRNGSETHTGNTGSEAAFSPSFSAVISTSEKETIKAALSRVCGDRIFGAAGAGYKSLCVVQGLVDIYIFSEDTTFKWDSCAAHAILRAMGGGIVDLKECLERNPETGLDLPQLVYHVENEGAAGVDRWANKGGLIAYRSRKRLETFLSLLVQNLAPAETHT
UniProt O60725, whole entry: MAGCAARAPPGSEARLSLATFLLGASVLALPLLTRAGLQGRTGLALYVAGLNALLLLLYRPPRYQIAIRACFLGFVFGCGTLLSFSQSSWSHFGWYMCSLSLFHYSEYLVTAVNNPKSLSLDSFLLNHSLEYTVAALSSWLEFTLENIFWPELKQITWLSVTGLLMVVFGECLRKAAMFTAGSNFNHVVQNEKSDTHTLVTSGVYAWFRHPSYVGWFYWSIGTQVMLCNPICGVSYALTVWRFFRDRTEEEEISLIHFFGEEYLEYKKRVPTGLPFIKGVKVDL
UniProt P50748: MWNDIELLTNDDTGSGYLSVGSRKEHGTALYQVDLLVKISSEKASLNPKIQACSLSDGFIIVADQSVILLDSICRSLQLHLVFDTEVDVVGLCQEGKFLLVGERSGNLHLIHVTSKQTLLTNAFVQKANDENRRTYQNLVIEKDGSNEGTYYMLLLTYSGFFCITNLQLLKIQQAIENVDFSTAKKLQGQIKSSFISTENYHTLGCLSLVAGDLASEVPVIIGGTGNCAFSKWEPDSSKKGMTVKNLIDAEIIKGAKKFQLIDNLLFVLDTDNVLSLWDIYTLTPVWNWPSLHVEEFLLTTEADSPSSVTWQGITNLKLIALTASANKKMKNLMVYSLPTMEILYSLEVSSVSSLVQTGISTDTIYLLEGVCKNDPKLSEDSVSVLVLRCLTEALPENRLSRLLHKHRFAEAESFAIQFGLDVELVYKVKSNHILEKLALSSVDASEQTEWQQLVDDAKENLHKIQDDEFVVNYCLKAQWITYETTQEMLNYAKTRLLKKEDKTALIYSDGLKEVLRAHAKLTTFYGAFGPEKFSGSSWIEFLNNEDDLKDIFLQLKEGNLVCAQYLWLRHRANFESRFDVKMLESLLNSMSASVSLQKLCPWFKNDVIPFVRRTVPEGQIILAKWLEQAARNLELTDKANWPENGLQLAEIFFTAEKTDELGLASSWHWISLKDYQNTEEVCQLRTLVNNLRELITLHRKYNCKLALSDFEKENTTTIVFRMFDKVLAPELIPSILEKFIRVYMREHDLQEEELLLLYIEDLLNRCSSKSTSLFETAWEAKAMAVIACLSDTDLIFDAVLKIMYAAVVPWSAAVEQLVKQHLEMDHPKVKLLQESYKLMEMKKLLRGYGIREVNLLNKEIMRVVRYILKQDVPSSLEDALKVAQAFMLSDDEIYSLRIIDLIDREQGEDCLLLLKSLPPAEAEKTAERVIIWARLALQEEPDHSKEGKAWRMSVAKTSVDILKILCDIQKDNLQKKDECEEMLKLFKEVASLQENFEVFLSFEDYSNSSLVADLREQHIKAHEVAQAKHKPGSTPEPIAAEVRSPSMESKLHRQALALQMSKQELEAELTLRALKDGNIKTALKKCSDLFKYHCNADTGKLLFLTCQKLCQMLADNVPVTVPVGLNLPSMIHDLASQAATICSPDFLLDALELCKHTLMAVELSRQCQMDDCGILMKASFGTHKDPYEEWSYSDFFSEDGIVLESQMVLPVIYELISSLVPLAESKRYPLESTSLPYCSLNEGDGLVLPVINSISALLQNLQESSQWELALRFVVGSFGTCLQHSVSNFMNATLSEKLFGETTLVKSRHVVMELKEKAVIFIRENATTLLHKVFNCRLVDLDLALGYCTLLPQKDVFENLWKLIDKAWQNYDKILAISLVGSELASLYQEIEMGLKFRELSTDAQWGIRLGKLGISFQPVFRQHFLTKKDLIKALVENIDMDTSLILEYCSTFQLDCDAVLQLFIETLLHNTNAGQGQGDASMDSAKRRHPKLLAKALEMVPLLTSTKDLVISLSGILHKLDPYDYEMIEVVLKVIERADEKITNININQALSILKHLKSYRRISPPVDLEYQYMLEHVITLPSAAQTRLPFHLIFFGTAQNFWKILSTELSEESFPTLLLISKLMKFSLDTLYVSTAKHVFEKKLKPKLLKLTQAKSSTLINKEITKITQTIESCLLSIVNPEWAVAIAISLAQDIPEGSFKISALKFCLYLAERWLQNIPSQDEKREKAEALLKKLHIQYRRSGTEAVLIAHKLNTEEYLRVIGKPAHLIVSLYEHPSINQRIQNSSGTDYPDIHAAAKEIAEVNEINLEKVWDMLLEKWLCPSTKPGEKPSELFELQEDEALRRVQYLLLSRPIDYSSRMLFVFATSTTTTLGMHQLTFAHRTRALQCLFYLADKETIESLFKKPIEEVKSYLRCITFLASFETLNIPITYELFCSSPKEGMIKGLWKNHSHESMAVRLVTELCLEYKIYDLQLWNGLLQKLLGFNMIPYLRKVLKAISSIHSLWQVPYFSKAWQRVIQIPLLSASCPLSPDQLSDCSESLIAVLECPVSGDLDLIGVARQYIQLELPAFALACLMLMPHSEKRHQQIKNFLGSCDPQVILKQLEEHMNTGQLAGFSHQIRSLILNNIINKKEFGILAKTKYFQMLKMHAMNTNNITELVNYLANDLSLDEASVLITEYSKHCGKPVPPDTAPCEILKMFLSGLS
UniProt Q8TEX9: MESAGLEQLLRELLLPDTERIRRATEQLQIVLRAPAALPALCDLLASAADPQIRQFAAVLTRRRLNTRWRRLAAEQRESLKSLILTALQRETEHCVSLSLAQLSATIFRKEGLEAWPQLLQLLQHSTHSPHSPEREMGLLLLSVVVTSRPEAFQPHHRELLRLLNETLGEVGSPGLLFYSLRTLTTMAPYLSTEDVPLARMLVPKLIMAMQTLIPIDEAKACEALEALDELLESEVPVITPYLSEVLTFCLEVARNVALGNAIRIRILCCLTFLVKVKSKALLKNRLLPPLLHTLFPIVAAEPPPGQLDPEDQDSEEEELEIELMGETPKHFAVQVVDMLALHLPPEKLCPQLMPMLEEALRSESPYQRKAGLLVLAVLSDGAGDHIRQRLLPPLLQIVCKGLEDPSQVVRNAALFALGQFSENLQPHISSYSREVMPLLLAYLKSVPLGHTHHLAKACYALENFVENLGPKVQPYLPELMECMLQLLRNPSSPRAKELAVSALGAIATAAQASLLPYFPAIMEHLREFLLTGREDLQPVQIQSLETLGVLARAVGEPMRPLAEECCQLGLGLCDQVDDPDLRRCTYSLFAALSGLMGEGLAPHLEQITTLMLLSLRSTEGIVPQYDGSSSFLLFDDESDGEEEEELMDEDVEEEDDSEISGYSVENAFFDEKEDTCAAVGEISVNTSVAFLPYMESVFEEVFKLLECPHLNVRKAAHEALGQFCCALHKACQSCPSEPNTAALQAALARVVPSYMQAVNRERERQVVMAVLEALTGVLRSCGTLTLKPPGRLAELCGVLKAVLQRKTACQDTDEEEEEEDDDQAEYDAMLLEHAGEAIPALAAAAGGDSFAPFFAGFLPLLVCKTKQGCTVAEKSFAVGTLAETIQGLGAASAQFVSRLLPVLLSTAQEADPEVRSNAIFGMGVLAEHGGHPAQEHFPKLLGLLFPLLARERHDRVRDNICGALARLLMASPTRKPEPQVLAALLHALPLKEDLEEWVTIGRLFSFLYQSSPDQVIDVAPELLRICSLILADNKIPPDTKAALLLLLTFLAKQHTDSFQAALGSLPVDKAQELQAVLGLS
UniProt Q9Y2L5: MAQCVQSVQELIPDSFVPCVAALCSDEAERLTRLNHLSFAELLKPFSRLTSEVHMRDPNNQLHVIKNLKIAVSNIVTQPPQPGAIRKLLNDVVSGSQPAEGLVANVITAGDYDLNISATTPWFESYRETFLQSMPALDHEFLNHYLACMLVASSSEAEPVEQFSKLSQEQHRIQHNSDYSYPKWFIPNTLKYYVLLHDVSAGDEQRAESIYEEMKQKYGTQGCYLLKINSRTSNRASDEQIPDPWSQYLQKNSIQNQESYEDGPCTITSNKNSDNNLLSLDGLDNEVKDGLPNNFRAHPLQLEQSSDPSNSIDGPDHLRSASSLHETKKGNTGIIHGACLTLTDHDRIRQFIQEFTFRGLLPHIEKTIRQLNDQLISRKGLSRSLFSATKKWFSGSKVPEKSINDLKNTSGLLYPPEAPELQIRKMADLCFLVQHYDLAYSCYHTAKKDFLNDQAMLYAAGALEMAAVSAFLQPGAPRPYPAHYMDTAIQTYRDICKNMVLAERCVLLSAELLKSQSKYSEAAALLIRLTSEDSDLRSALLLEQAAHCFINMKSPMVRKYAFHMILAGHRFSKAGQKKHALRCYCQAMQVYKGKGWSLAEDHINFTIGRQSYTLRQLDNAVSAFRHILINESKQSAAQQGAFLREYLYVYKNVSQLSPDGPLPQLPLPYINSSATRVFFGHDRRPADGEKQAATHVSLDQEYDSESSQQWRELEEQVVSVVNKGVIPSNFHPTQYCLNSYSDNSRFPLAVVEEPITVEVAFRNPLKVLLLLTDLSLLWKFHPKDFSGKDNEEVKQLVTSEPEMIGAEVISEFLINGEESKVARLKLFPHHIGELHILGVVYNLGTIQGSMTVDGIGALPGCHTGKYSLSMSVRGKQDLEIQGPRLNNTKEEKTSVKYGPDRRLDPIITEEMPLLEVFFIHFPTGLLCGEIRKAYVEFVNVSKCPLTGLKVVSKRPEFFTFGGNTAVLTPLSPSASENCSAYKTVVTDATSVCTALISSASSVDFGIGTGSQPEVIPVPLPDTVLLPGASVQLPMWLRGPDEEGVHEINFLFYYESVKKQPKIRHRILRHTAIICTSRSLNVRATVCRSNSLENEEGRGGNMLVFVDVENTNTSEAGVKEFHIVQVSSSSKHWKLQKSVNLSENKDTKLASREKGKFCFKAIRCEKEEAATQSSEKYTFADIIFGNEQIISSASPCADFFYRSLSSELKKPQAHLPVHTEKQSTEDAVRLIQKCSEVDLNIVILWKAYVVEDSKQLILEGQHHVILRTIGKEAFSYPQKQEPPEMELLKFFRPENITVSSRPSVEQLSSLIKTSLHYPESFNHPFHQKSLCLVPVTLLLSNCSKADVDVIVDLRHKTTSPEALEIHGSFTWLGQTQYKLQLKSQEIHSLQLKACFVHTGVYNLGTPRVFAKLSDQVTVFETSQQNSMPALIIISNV
UniProt Q9ULE6: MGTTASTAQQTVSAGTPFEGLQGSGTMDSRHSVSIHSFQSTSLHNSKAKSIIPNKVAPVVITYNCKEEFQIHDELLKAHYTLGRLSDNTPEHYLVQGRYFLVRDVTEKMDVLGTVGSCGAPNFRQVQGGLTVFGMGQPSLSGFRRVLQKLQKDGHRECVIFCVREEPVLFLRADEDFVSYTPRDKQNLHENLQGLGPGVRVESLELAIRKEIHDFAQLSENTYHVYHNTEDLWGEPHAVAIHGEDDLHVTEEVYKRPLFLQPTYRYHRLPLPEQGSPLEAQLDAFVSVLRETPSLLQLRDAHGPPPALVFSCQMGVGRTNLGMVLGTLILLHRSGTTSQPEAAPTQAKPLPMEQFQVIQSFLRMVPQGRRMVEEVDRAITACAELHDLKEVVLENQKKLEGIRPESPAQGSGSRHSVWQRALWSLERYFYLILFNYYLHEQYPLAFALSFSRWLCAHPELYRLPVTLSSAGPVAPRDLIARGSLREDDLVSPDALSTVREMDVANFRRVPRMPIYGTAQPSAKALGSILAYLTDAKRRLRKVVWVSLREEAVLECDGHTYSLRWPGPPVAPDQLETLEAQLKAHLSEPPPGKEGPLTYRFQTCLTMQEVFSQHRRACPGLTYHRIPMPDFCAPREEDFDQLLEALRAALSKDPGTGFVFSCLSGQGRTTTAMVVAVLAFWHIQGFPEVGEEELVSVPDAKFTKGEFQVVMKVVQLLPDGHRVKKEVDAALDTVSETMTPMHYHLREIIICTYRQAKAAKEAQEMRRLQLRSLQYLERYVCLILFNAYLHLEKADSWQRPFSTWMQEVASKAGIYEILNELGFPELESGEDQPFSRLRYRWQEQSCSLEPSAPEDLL

This is one part of the list.

Compound in this test: COc1ccc(Cn2ccc3cc(C)c(C(=O)NO)cc32)cc1
Briefly: dose-dependent thermal stabilisation call (2D-TPP, DLPTP, 10% FDR) (binary (1 = stabilised)); higher = stabilised by the compound. Conditions: system: HL-60 intact cells; concentration range 0.04-10 µM. The procedure: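 2D thermal proteome profiling in intact HL-60 cells treated with BRD-3811 (0, 0.04, 0.29, 2, 10 uM) for 90 min at 37 C, then heated 3 min at one of 12 temperatures (42-63.9 C). Soluble protein was quantified by TMT10 MS. The value is the DLPTP call of the paper: dose-dependent thermal stabilisation over all temperatures at 10% FDR (F-test of a dose-response against a flat model); one experiment, one call per tested protein.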
With JMJD7 (UniProt P0C870), the “dose-dependent thermal stabilisation call” value is inactive: 0.

KLRAQ1 (UniProt Q6ZMI0): the “dose-dependent thermal stabilisation call” value was inactive: 0.

For ITSN1 (UniProt Q15811), the “dose-dependent thermal stabilisation call” value was inactive: 0.

On to INPP1 (UniProt P49441), for which the “dose-dependent thermal stabilisation call” value is inactive: 0.

Take IPO9 (UniProt Q96P70): the “dose-dependent thermal stabilisation call” value was inactive: 0.

With ICMT (UniProt O60725), the “dose-dependent thermal stabilisation call” value was inactive: 0.

For the target IL2RG (UniProt P31785), the “dose-dependent thermal stabilisation call” value is inactive: 0.

In the case of IL27RA (UniProt Q6UWB1), the “dose-dependent thermal stabilisation call” value is inactive: 0.

In the case of IER3IP1 (UniProt Q9Y5U9), the “dose-dependent thermal stabilisation call” value is inactive: 0.

As for IGSF10 (UniProt Q6WRI0), the “dose-dependent thermal stabilisation call” value is inactive: 0.

For the target ITSN2 (UniProt Q9NZM3), the “dose-dependent thermal stabilisation call” value was inactive: 0.

Regarding KIAA1310 (UniProt Q9P2N6), the “dose-dependent thermal stabilisation call” value is inactive: 0.

KNTC1 (UniProt P50748): the “dose-dependent thermal stabilisation call” value is inactive: 0.

As to INPP5A (UniProt Q14642), the “dose-dependent thermal stabilisation call” value is inactive: 0.

IRF3 (UniProt Q14653): the “dose-dependent thermal stabilisation call” value was inactive: 0.

As for IPPK (UniProt Q9H8X2), the “dose-dependent thermal stabilisation call” value was inactive: 0.

Take KIF13B (UniProt Q9NQT8): the “dose-dependent thermal stabilisation call” value is inactive: 0.

Take IPO4 (UniProt Q8TEX9): the “dose-dependent thermal stabilisation call” value is inactive: 0.

Turning to JPH1 (UniProt Q9HDC5), the “dose-dependent thermal stabilisation call” value is inactive: 0.

In the case of KIAA0427 (UniProt O43310), the “dose-dependent thermal stabilisation call” value was inactive: 0.

As for IRF2BP1 (UniProt Q8IU81), the “dose-dependent thermal stabilisation call” value is inactive: 0.

For KIAA1012 (UniProt Q9Y2L5), the “dose-dependent thermal stabilisation call” value is inactive: 0.

Consider ITCH (UniProt Q96J02), for which the “dose-dependent thermal stabilisation call” value was inactive: 0.

As for IREB2 (UniProt P48200), the “dose-dependent thermal stabilisation call” value is inactive: 0.

For the target KIAA1279 (UniProt Q96EK5), the “dose-dependent thermal stabilisation call” value is inactive: 0.

For KIAA1704 (UniProt Q8IXQ4), the “dose-dependent thermal stabilisation call” value was inactive: 0.

On to KIAA1274 (UniProt Q9ULE6), for which the “dose-dependent thermal stabilisation call” value was inactive: 0.

For KIF14 (UniProt Q15058), the “dose-dependent thermal stabilisation call” value was inactive: 0.

For KIAA0020 (UniProt Q15397), the “dose-dependent thermal stabilisation call” value was inactive: 0.

Take KIAA0467 (UniProt Q5T011): the “dose-dependent thermal stabilisation call” value is inactive: 0.

On to KIAA0664 (UniProt O75153), for which the “dose-dependent thermal stabilisation call” value is inactive: 0.

On to HTRA2 (UniProt O43464), for which the “dose-dependent thermal stabilisation call” value was inactive: 0.

On to INPPL1 (UniProt O15357), for which the “dose-dependent thermal stabilisation call” value is inactive: 0.

As to KIAA0100 (UniProt Q14667), the “dose-dependent thermal stabilisation call” value is inactive: 0.

Turning to INPP4A (UniProt Q96PE3), the “dose-dependent thermal stabilisation call” value was inactive: 0.

In the case of KIAA1033 (UniProt Q2M389), the “dose-dependent thermal stabilisation call” value was inactive: 0.
